Consider 80 compounds from publication PMC12040169 (PLOS Biology, 2025).

This is one part of the list.

The assay deals with T1, CTL2-GFP (C. trachomatis L2/434/Bu, GFP-expressing).
T1 construct: L2/434/Bu, GFP-expressing
The arrangement: species or system HeLa; Intracellular C. trachomatis growth in HeLa cells, bulk GFP fluorescence relative to DMSO. As to conditions: bulk GFP, single well; 28.5 h, 10 µM; inhibitor.
As to `CC[C@H]1CN(C(=O)c2ccnc(Cl)c2)CC[C@H]1CC(=O)NCc1ccc2c(c1)OCO2` [CBK289137], the “% of control remaining” value was 108.995%.

On to `CC(=O)NCCSc1cc(C(F)(F)F)ccn1` [CBK105297], for which the “% of control remaining” value was found to be 99.8198%.

`COc1cccc(CN(C)CCN(C)C)c1O` [CBK261905]: the “% of control remaining” value stood at 111.877%. On to `Cc1ccc(-c2cc(C(=O)Nc3ccc(S(=O)(=O)Nc4nccs4)cc3)c3ccccc3n2)c(C)c1` [CBK262638], for which the “% of control remaining” value turned out to be 89.6193%. As for `Cc1nonc1NC(=O)CSc1nc2cc(Cl)ccc2[nH]1` [CBK270095], the “% of control remaining” value stood at 131.286%.

Turning to `COCCN(C(=O)c1ccc2ccccc2c1)C1CCS(=O)(=O)C1` (centres unmarked) [CBK305758], the “% of control remaining” value is reported as 121.488%. In the case of `CCOc1ccccc1NC(=O)Nc1ncccc1C` [CBK267140], the “% of control remaining” value worked out at 170.758%. The same measure for `c1coc(CNc2c(-c3ccco3)nc3cnccn23)c1` [CBK283496]: 105.566%; for `Cc1ccccc1/N=C1/NC(=O)/C(=C/c2ccc([N+](=O)[O-])o2)S1` [CBK094584]: 116.096%; for `O=C(O)c1ccc(-n2nnnc2SCc2ccc(F)cc2)cc1` [CBK287229]: 130.374%. The figure for `CCc1c(C(=O)Nc2ccc(C(F)(F)F)cc2)cnc2ncnn12` [CBK291244] is 159.333%; for `CN(C)CC(C)(C)CNC(=O)c1cnc2cc(Cl)ccc2c1O` [CBK107357] it is 162.77%; for `CCn1ncc(CN[C@@H]2CCC(=O)N[C@H]2c2cc(F)cc(F)c2)c1C` [CBK282914] it is 110.889%. The figure for `CCOC(=O)c1c(NC(=O)CCN2C(=O)c3cccc4cccc(c34)C2=O)sc2c1CCC2` [CBK262982] is 98.0302%; for `O=C(NCc1ccc(OC2CCNCC2)cc1)c1ccccn1` [CBK036361T] it is 121.237%; for `CSc1ncc(CNCc2ccc3c(c2)OCO3)c(N)n1` [CBK074563] it is 97.4218%.

In the case of `CC(=O)CCc1cc(CCC(N)=O)on1` [CBK023350], the “% of control remaining” value stood at 143.225%. The figure for `CCCn1c(-c2ccccc2OC(F)(F)F)n[nH]c1=O` [CBK074238] is 118.678%; for `NC(=O)CCNC(=O)C1(c2ccccc2)CCCC1` [CBK160929] it is 134.777%.

On to `CC(C)c1ccc(/C=C2\CCCc3c2nc2ccccc2c3C(=O)O)cc1` [CBK299777], for which the “% of control remaining” value worked out at 168.899%. Regarding `CCOC(=O)C1CSCCN1C(=O)c1ccc(-c2cnco2)cc1` (centres unmarked) [CBK304208], the “% of control remaining” value is reported as 59.0804%. For `O=C1CC2(CCCC2)C(=O)N1CCNc1nccc(C(F)(F)F)n1` [CBK028777], the “% of control remaining” value was 124.158%. As to `CCc1cc(CNC(=O)C(c2ccc(F)cc2)N(C)C)on1` (centres unmarked) [CBK281648], the “% of control remaining” value was 144.136%. The same measure for `CCCOc1ccc(C(=O)NCc2ccccn2)cc1` [CBK269789]: 160.963%; for `O=C1NCC2(C/C=C/CCOc3ccccc31)CCNCC2` [CBK292178]: 101.383%. The figure for `O=C(CCn1c(=O)oc2ccccc21)Nc1ccncc1` [CBK287466] is 148.01%; for `O=C(NCc1nnc(-c2cccs2)o1)c1cccc2ccccc12` [CBK284636] it is 136.97%. Take `Clc1ccc(C2(N3CCC(N4CCOCC4)CC3)CC2)cc1` [CBK282722]: the “% of control remaining” value is listed as 138.145%. In the case of `Nc1nnnn1CC(=O)N/N=C/c1cc2c(cc1[N+](=O)[O-])OCO2` [CBK262187], the “% of control remaining” value is recorded as 106.419%. The same measure for `O=C1N=C(NCc2ccccc2F)OC12CCN(Cc1ccccc1)CC2` [CBK115688]: 110.907%.

Take `CCCCCn1c(=O)c(Cc2ccccc2)c(O)c2ccccc21` [CBK291233]: the “% of control remaining” value is 132.381%. For the compound `COc1cccc(CCN2C(=O)CC3(C2=O)C(=O)N(C)c2ccc(OC)cc23)c1` (centres unmarked) [CBK075191], the “% of control remaining” value came out at 105.033%. As for `CC(=O)N1CCC(NC(=O)c2cccc(C(N)=O)c2)CC1` [CBK297747], the “% of control remaining” value came to 107.922%.

Take `C=C(C)Cn1c(Cc2ccccc2)nnc1SC(C)C` [CBK200083]: the “% of control remaining” value was 98.0167%. The figure for `O=C(c1c(-c2ccccc2)nnc2ccccc12)N1CCN(CCO)CC1` [CBK066882] is 128.027%; for `CN1CCC(N2CCN(C(=O)NC3CCc4ccccc43)CC2)CC1` (centres unmarked) [CBK156110] it is 141.842%; for `c1nc(NCCCN2CCOCC2)c2c3c(sc2n1)CCCCC3` [CBK268236] it is 151.454%. In the case of `O=C(N[C@H]1CCN(Cc2ccccc2)C1)c1cnc(-c2ccccc2)c(-c2ccncc2)c1` [CBK036639], the “% of control remaining” value worked out at 178.883%. Turning to `COc1ccc(-c2noc(CN(C(=O)Cc3ccc(C)cc3)C(C)C)n2)cc1` [CBK269774], the “% of control remaining” value turned out to be 99.3137%. The figure for `O=C(OCCN1CCOCC1)N1CCN(c2ccccc2)CC1` [CBK200242] is 124.985%.

For the compound `CCn1c(C)nc2cc(NC(=O)c3c4c(nn3C)CCCC4)ccc21` [CBK281831], the “% of control remaining” value is listed as 123.964%. The same measure for `CCOc1ccc(/C=C2/NC(=O)NC2=O)cc1Br` [CBK098031]: 156.029%.

As to `CCCCOc1ccc(OC(=O)COCCOCCN2C(=O)c3ccccc3C2=O)cc1` [CBK155584], the “% of control remaining” value is given as 111.182%. Turning to `Cc1nc2ccc(C(=O)NCCCN3CC(C)CC(C)C3)cc2[nH]1` (centres unmarked) [CBK283298], the “% of control remaining” value was found to be 107.102%. The figure for `c1ccc2[nH]c(CN3CCC[C@@H]3CN3CCCC3)nc2c1` [CBK149102] is 119.224%; for `Cc1cc(NC(=O)C(C)N2CCN(S(=O)(=O)c3ccc(C4CCCCC4)cc3)CC2)on1` (centres unmarked) [CBK295639] it is 80.8085%. Turning to `CCN1CCN(C(=O)CN(C)S(=O)(=O)c2ccc(OC)c(Cl)c2)CC1` [CBK268091], the “% of control remaining” value is given as 124.521%. Consider `O=C(O)CCCCCN1C(=O)/C(=C/c2ccc(O)cc2)SC1=S` [CBK262835], for which the “% of control remaining” value came out at 100%. The figure for `Cc1cc2c(o1)c1cnn(CC(=O)N(C)C)c(=O)c1n2C(C)C` [CBK284233] is 144.728%. As for `COc1ccc(Cn2nc(N)c3ccccc32)cc1` [CBK093530], the “% of control remaining” value is on record as 106.738%. The figure for `CC(C(=O)NCCc1cn(C)c2ccc(Cl)cc12)N1CCOCC1` (centres unmarked) [CBK282263] is 149.148%; for `COc1ccc(OC)c(-n2nnnc2SCC2CCCN(C)C2)c1` (centres unmarked) [CBK305386] it is 115.421%.

With `c1coc(CNc2c(-c3cccs3)nc3cnccn23)c1` [CBK283540], the “% of control remaining” value was 125.888%. As for `O=C(O)c1cccc(S(=O)(=O)Nc2nc3ccc(Cl)cc3s2)c1` [CBK299793], the “% of control remaining” value was 124.778%.

On to `Cc1ccc(SCC(=O)Nc2ccc(O)cc2C(=O)O)cc1` [CBK131703], for which the “% of control remaining” value was determined as 92.5967%.

Regarding `COc1ccc(Nc2nnc(-c3ccc(C(=O)NCCO)cc3)c3ccccc23)cc1` [CBK263735], the “% of control remaining” value is listed as 127.083%. The same measure for `CC(C)NC(=O)C1CC2CCC1(C)C[C@]21NC(=O)c2ccccc2N1` (some centres unmarked) [CBK284444]: 143.607%; for `CCn1c(SCC(=O)N/N=C/C(C)=C/c2ccccc2)nc2ccccc21` [CBK263178]: 79.6848%; for `O=C(Nc1ccccc1C(F)(F)F)N(Cc1ccccc1C(F)(F)F)CC1CCNCC1` [CBK049744]: 80.706%. For the compound `Cc1nc(C(F)(F)F)ccc1C(=O)Nc1nc(CC(N)=O)cs1` [CBK305776], the “% of control remaining” value came out at 106.967%.

Consider `Nc1ccccc1CC(c1c[nH]c2ccccc12)c1c[nH]c2ccccc12` [CBK261780], for which the “% of control remaining” value was found to be 94.2298%. The figure for `Cc1ccccc1OCC(O)CN1CCCC(C(F)(F)F)C1` (centres unmarked) [CBK304873] is 125.156%; for `Clc1ccc(CN2CCCN(c3nccc(OCC4COc5ccccc5O4)n3)CC2)cc1Cl` (centres unmarked) [CBK083967] it is 109.514%. In the case of `O=S1(=O)N=C(c2cccs2)C=C(C(F)(F)F)N1` [CBK019309], the “% of control remaining” value stood at 92.0705%. As for `COc1ccc(N(CC(=O)Nc2cccnc2)S(=O)(=O)c2ccccc2)cc1` [CBK262236], the “% of control remaining” value is 108.718%. The same measure for `COc1ccc(C(=O)N2CCC3(CCCN(C(=O)c4ccc5ncccc5c4)C3)C2)cc1OC` (centres unmarked) [CBK131656]: 111.322%; for `FC(F)(F)c1ccnc(Sc2cccc(Cl)c2)c1` [CBK115234]: 105.587%. The figure for `COCCN(C)c1ccc(C(=O)N2CCC(N3CCOCC3)CC2)cn1` [CBK306851] is 103.668%. The same measure for `CC(C)(C)CC(C)(C)NC(=S)Nc1ccc2nc(-c3ccccn3)c(-c3ccccn3)nc2c1` [CBK265118]: 51.8079%; for `CC1(C)[C@H](Cc2cc(CC3CCCCC3)on2)C[C@@H]1NC(=O)N1CCOCC1` [CBK289258]: 129.783%; for `CC(=O)NCc1ccc(-c2ccc(C(=O)NCc3ccc4[nH]c(C)c(C)c4c3)c(C)n2)cc1` [CBK285888]: 148.46%. For `O=C1CC(c2ccc(C(=O)O)cc2)c2c(-c3ccc(Cl)cc3)n[nH]c2N1` (centres unmarked) [CBK286684], the “% of control remaining” value was found to be 128.458%. For the compound `Cc1cc(=O)c2ccccc2n1CC(=O)N1CCOC2(CCCC2)C1` [CBK306811], the “% of control remaining” value is listed as 110.599%. The figure for `CC(=O)Nc1ccc(CNC(=O)CN(C)Cc2cccc(O)c2)cc1` [CBK307660] is 130.214%; for `OCCN(Cc1ccccc1)Cc1ccc(-c2ccccc2)cc1` [CBK261883] it is 119.534%; for `CSCCC(C(=O)O)N1C(=O)C(=Cc2ccc(-c3cccc(Cl)c3)o2)SC1=S` (centres unmarked) [CBK296982] it is 140.152%.

In the case of `Nc1ccccc1Sc1nc2ccccc2nc1C(F)(F)F` [CBK093776], the “% of control remaining” value amounted to 125.912%. The same measure for `O=S(=O)(c1cccs1)n1ccc2c(CN3CCCC3)cccc21` [CBK116195T]: 96.6416%; for `COCC(=O)NC(Cc1ccsc1)c1nc(C)c(C)s1` (centres unmarked) [CBK284773]: 150.37%. The same measure for `O=C(O)COc1ccc(S(=O)(=O)N2CCc3ccccc32)cc1` [CBK269882]: 118.889%.
